{
  "source": "patent US20200010857A1",
  "about": "(priority 2016, published 2020)",
  "origin": "cited, not measured here",
  "key": {"Bacillus megaterium": {"test_system": "Bacillus megaterium", "conditions": "Na2SeO3 in rich medium, aerobic; Mishra et al. (1995); cited from earlier work"}, "Bacillus subtilis": {"test_system": "Bacillus subtilis", "conditions": "Na2SeO3 in rich medium, aerobic; Garbisu et al. (1995); cited from earlier work"}, "Bacillus licheniformis": {"test_system": "Bacillus licheniformis", "conditions": "Na2SeO3 in rich medium, aerobic; Dhanjal et al. (2011); cited from earlier work"}, "Salinicoccus sp. QW6": {"test_system": "Salinicoccus sp. QW6", "conditions": "Na2SeO3 in rich medium, aerobic; Amoozegar et al. (2008); cited from earlier work"}, "Streptomyces sp. ES2-5": {"test_system": "Streptomyces sp. ES2-5", "conditions": "cited from earlier work"}, "[1]": {"test_system": "Bacillus mycoides SelTE01", "conditions": "Na2SeO3 in rich medium, aerobic; Vallini et al. (2005); cited from earlier work"}, "Bacillus sp. STG-83": {"test_system": "Bacillus sp. STG-83", "conditions": "Na2SeO3 in rich medium, aerobic; Soudi et al. (2009); cited from earlier work"}, "Bacillus cereus": {"test_system": "Bacillus cereus", "conditions": "Na2SeO3 in rich medium, aerobic; Dhanjal et al. (2010); cited from earlier work"}, "[2]": {"test_system": "Streptomyces microflavus FSHJ31", "conditions": "cited from earlier work"}, "Bacillus sp. MSh-1": {"test_system": "Bacillus sp. MSh-1", "conditions": "Na2SeO3 in rich medium, aerobic; Shakibaie et al. (2010); cited from earlier work"}, "bacterial cells": {"test_system": "bacterial cells", "conditions": "cited from earlier work"}},
  "note": "Read-outs that look alike come from different tables or passages of the source. At least one compound was matched to its structure with a doubt left.",
  "data": [
    {"smiles": "O=[Se](O)O", "note": "[Na2SeO3, sodium selenite]", "values": [
      {"measurement": "MIC^Se", "setting": "Bacillus megaterium", "result": 2, "unit": "mW"},
      {"measurement": "MIC^Se", "setting": "Bacillus subtilis", "result": ">5", "unit": "mW"},
      {"measurement": "MIC^Se", "setting": "Bacillus licheniformis", "result": ">10", "unit": "mW"},
      {"measurement": "MIC^Se", "setting": "Salinicoccus sp. QW6", "result": 800, "unit": "mW"},
      {"measurement": "MIC^Se", "setting": "Streptomyces sp. ES2-5; Na2SeO3 in rich medium, aerobic, Tan et al. (2016)", "result": 50, "unit": "mW"},
      {"measurement": "MIC^Se", "setting": "Streptomyces sp. ES2-5; text value [49]", "result": 50, "unit": "mM"},
      {"measurement": "MIC^Se", "setting": "[1]", "result": 15, "unit": "mW"},
      {"measurement": "MIC^Se", "setting": "Bacillus sp. STG-83", "result": 640, "unit": "mW"},
      {"measurement": "MIC^Se", "setting": "Bacillus cereus", "result": ">10", "unit": "mW"},
      {"measurement": "MIC^Se", "setting": "[2]; Na2SeO3 in rich medium, aerobic, Forootanfar et al. (2014)", "result": 2.53, "unit": "mW"},
      {"measurement": "MIC^Se", "setting": "[2]; text value [5]", "result": 2.53, "unit": "mM"},
      {"measurement": "MIC^Se", "setting": "Bacillus sp. MSh-1", "result": "<3.16", "unit": "mW"},
      {"measurement": "MIC^Se", "setting": "bacterial cells; aerobic growth", "result": 1.3, "unit": "mM"},
      {"measurement": "MIC^Se", "setting": "bacterial cells; anaerobic growth", "result": 4.6, "unit": "mM"}
    ]}
  ]
}
